Laboratory results reported in patent US8492378B2, “GSK-3β inhibitor” (Takeda Pharmaceutical Company Limited, priority 2006, dated 2013).
Some of these results come from one statement about several compounds together.

By UniProt entry, the sequences of proteins in these tests, tags left out. Chains listed by the source or under a name are the forms on record and can include a tag or linker.
UniProt P49841, other isoform, or with tags, fused parts or gaps: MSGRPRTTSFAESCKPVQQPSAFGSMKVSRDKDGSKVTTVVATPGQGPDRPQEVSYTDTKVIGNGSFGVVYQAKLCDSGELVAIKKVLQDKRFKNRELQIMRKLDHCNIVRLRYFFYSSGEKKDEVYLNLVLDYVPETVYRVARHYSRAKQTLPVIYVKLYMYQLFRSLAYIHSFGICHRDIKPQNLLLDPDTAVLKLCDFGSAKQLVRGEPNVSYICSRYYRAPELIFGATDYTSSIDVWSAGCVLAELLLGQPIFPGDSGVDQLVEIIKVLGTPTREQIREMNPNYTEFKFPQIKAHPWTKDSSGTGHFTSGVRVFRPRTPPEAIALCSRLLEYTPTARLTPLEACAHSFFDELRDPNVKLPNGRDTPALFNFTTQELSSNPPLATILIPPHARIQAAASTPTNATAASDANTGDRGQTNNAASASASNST

Target: GSK-3β (Homo sapiens, UniProt P49841)
Assay: GSK-3β inhibitory activity evaluation (Kinase Glo luminescence)
Format: biochemical
Parameters: FLAG (N); made in house; host or cells: Sf-21 insect cells, recombinant baculovirus (pFASTBAC1, BAC-TO-BAC)
Details: recombinant human GSK-3β, read-out: IC50 value (GSK-3β inhibition)

| Structure (SMILES) | IC50 [nM] |
| --- | --- |
| Cc1nnc(-c2ccc3occ(-c4ccc(OS(C)(=O)=O)cc4)c3c2)o1 [Example 320, 4-[5-(5-methyl-1,3,4-oxadiazol-2-yl)-1-benzofuran-3-yl]phenyl methanesulfonate] | ≤ 100 |
| Cc1nnc(-c2ccc3occ(-c4ccc(OCS(C)(=O)=O)cc4)c3c2)o1 [Example 322, 2-methyl-5-[3-[4-[(methylsulfonyl)methoxy]phenyl]-1-benzofuran-5-yl]-1,3,4-oxadiazole] | ≤ 100 |
| CC(=O)c1ccc(-c2coc3ccc(-c4nnc(C)o4)cc23)cc1 [Example 330, 1-[4-[5-(5-methyl-1,3,4-oxadiazol-2-yl)-1-benzofuran-3-yl]phenyl]ethanone] | ≤ 100 |
| Cc1nnc(-c2ccc3occ(-c4ccc(C(=O)N(C)C)c(F)c4)c3c2)o1 [Example 333, 2-fluoro-N,N-dimethyl-4-[5-(5-methyl-1,3,4-oxadiazol-2-yl)-1-benzofuran-3-yl]benzamide] | ≤ 100 |
| Cc1nnc(-c2ccc3occ(-c4ccc(C(=O)N5CCOCC5)c(F)c4)c3c2)o1 [Example 334, 4-[2-fluoro-4-[5-(5-methyl-1,3,4-oxadiazol-2-yl)-1-benzofuran-3-yl]benzoyl]morpholine] | ≤ 100 |
| Cc1nnc(-c2ccc3occ(-c4ccc(NS(C)(=O)=O)c(F)c4)c3c2)o1 [Example 335, N-[2-fluoro-4-[5-(5-methyl-1,3,4-oxadiazol-2-yl)-1-benzofuran-3-yl]phenyl]methanesulfonamide] | ≤ 100 |
| Cc1nnc(-c2ccc3occ(-c4ccc(C(=O)N5CCCC5)c(F)c4)c3c2)o1 [Example 336, 2-[3-[3-fluoro-4-(pyrrolidin-1-ylcarbonyl)phenyl]-1-benzofuran-5-yl]-5-methyl-1,3,4-oxadiazole] | ≤ 100 |
| Cc1nnc(-c2ccc3occ(-c4ccc(C(=O)O)cc4Cl)c3c2)o1 [Example 338, 3-chloro-4-[5-(5-methyl-1,3,4-oxadiazol-2-yl)-1-benzofuran-3-yl]benzoic acid] | ≤ 100 |
| CNC(=O)c1ccc(-c2coc3ccc(-c4nnc(C)o4)cc23)c(Cl)c1 [Example 339, 3-chloro-N-methyl-4-[5-(5-methyl-1,3,4-oxadiazol-2-yl)-1-benzofuran-3-yl]benzamide] | ≤ 100 |
| CNS(=O)(=O)c1ccc(-c2coc3ccc(-c4nnc(C)o4)cc23)cc1 [Example 340, N-methyl-4-[5-(5-methyl-1,3,4-oxadiazol-2-yl)-1-benzofuran-3-yl]benzenesulfonamide] | ≤ 100 |
| Cc1nnc(-c2ccc3occ(-c4ccc(S(=O)(=O)N(C)C)cc4)c3c2)o1 [Example 341, N,N-dimethyl-4-[5-(5-methyl-1,3,4-oxadiazol-2-yl)-1-benzofuran-3-yl]benzenesulfonamide] | ≤ 100 |
| Cc1nnc(-c2ccc3occ(-c4ccc(C#N)cc4)c3c2)o1 [Example 342, 4-[5-(5-methyl-1,3,4-oxadiazol-2-yl)-1-benzofuran-3-yl]benzonitrile] | ≤ 100 |
| Cc1nnc(-c2ccc3occ(-c4ccc(C(F)(F)F)cc4)c3c2)o1 [Example 343, 2-methyl-5-[3-[4-(trifluoromethyl)phenyl]-1-benzofuran-5-yl]-1,3,4-oxadiazole] | ≤ 100 |
| Cc1nnc(-c2ccc3occ(-c4ccccc4Cl)c3c2)o1 [Example 346, 2-[3-(2-chlorophenyl)-1-benzofuran-5-yl]-5-methyl-1,3,4-oxadiazole] | ≤ 100 |
| Cc1nnc(-c2ccc3occ(-c4ccccc4C)c3c2)o1 [Example 347, 2-methyl-5-[3-(2-methylphenyl)-1-benzofuran-5-yl]-1,3,4-oxadiazole] | ≤ 100 |
| Cc1nnc(-c2ccc3occ(-c4cc(F)ccc4Cl)c3c2)o1 [Example 349, 2-[3-(2-chloro-5-fluorophenyl)-1-benzofuran-5-yl]-5-methyl-1,3,4-oxadiazole] | ≤ 100 |
| Cc1nnc(-c2ccc3occ(-c4cc(Cl)ccc4F)c3c2)o1 [Example 350, 2-[3-(5-chloro-2-fluorophenyl)-1-benzofuran-5-yl]-5-methyl-1,3,4-oxadiazole] | ≤ 100 |
| Cc1nnc(-c2ccc3occ(-c4cc(Cl)ccc4Cl)c3c2)o1 [Example 352, 2-[3-(2,5-dichlorophenyl)-1-benzofuran-5-yl]-5-methyl-1,3,4-oxadiazole] | ≤ 100 |
| Cc1nnc(-c2ccc3occ(-c4ccccc4F)c3c2)o1 [Example 354, 2-[3-(2-fluorophenyl)-1-benzofuran-5-yl]-5-methyl-1,3,4-oxadiazole] | ≤ 100 |
| Cc1nnc(-c2ccc3occ(-c4cccc(F)c4F)c3c2)o1 [Example 355, 2-[3-(2,3-difluorophenyl)-1-benzofuran-5-yl]-5-methyl-1,3,4-oxadiazole] | ≤ 100 |
| Cc1nnc(-c2ccc3occ(-c4cc(F)ccc4F)c3c2)o1 [Example 356, 2-[3-(2,5-difluorophenyl)-1-benzofuran-5-yl]-5-methyl-1,3,4-oxadiazole] | ≤ 100 |

| Structure (SMILES) | IC50 [nM] |
| --- | --- |
| Cc1nnc(-c2ccc3occ(-c4ccc5ncccc5c4)c3c2)o1 [Example 358, 6-[5-(5-methyl-1,3,4-oxadiazol-2-yl)-1-benzofuran-3-yl]quinoline] | ≤ 100 |
| Cc1nnc(-c2ccc3occ(-c4ccncc4Cl)c3c2)o1 [Example 359, 3-chloro-4-[5-(5-methyl-1,3,4-oxadiazol-2-yl)-1-benzofuran-3-yl]pyridine] | ≤ 100 |
| CSc1ccc(-c2coc3ccc(-c4nnc(N)o4)cc23)cc1 [Example 365, 5-[3-[4-(methylthio)phenyl]-1-benzofuran-5-yl]-1,3,4-oxadiazol-2-amine] | ≤ 100 |
| CNc1nnc(-c2ccc3occ(-c4ccc(SC)cc4)c3c2)o1 [Example 368, N-methyl-5-[3-[4-(methylthio)phenyl]-1-benzofuran-5-yl]-1,3,4-oxadiazol-2-amine] | ≤ 100 |
| CNc1nnc(-c2ccc3occ(-c4ccc([S+](C)[O-])cc4)c3c2)o1 (stereo not drawn) [Example 369, N-methyl-5-[3-[4-(methylsulfinyl)phenyl]-1-benzofuran-5-yl]-1,3,4-oxadiazol-2-amine] | ≤ 100 |
| CSc1ccc(-c2coc3ccc(-c4nnc(N)o4)cc23)cc1Cl [Example 370, 5-[3-[3-chloro-4-(methylthio)phenyl]-1-benzofuran-5-yl]-1,3,4-oxadiazol-2-amine] | ≤ 100 |
| C[S+]([O-])c1ccc(-c2coc3ccc(-c4nnc(N)o4)cc23)cc1Cl (stereo not drawn) [Example 371, 5-[3-[3-chloro-4-(methylsulfinyl)phenyl]-1-benzofuran-5-yl]-1,3,4-oxadiazol-2-amine] | ≤ 100 |
| CS(=O)(=O)c1ccc(-c2coc3ccc(-c4nnc(N)o4)cc23)cc1Cl [Example 372, 5-[3-[3-chloro-4-(methylsulfonyl)phenyl]-1-benzofuran-5-yl]-1,3,4-oxadiazol-2-amine] | ≤ 100 |
| Nc1nnc(-c2ccc3occ(-c4ccc(OC(F)(F)F)cc4)c3c2)o1 [Example 373, 5-[3-[4-(trifluoromethoxy)phenyl]-1-benzofuran-5-yl]-1,3,4-oxadiazol-2-amine] | ≤ 100 |
| CS(=O)(=O)c1nnc(-c2ccc3occ(-c4ccc(OC(F)(F)F)cc4)c3c2)o1 [Example 377, 2-(methylsulfonyl)-5-[3-[4-(trifluoromethoxy)phenyl]-1-benzofuran-5-yl]-1,3,4-oxadiazole] | ≤ 100 |
| CNc1nnc(-c2ccc3occ(-c4ccc(OC(F)(F)F)cc4)c3c2)o1 [Example 378, N-methyl-5-[3-[4-(trifluoromethoxy)phenyl]-1-benzofuran-5-yl]-1,3,4-oxadiazol-2-amine] | ≤ 100 |
| C[S+]([O-])c1nnc(-c2ccc3occ(-c4cccc(OC(F)(F)F)c4)c3c2)o1 (stereo not drawn) [Example 382, 2-(methylsulfinyl)-5-[3-[3-(trifluoromethoxy)phenyl]-1-benzofuran-5-yl]-1,3,4-oxadiazole] | ≤ 100 |
| CNc1nnc(-c2ccc3occ(-c4cccc(OC(F)(F)F)c4)c3c2)o1 [Example 383, N-methyl-5-[3-[3-(trifluoromethoxy)phenyl]-1-benzofuran-5-yl]-1,3,4-oxadiazol-2-amine] | ≤ 100 |
| CN(C)c1nnc(-c2ccc3occ(-c4cccc(OC(F)(F)F)c4)c3c2)o1 [Example 385, N,N-dimethyl-5-[3-[3-(trifluoromethoxy)phenyl]-1-benzofuran-5-yl]-1,3,4-oxadiazol-2-amine] | ≤ 100 |
| CNc1nnc(-c2ccc3occ(-c4ccccc4Cl)c3c2)o1 [Example 388, 5-[3-(2-chlorophenyl)-1-benzofuran-5-yl]-N-methyl-1,3,4-oxadiazol-2-amine] | ≤ 100 |
| Fc1ccc(F)c(-c2coc3ccc(-c4nnc(S)o4)cc23)c1 [Example 390, 5-[3-(2,5-difluorophenyl)-1-benzofuran-5-yl]-1,3,4-oxadiazole-2-thiol] | ≤ 100 |
| CSc1nnc(-c2ccc3occ(-c4cc(F)ccc4F)c3c2)o1 [Example 391, 2-[3-(2,5-difluorophenyl)-1-benzofuran-5-yl]-5-(methylthio)-1,3,4-oxadiazole] | ≤ 100 |
| C[S+]([O-])c1nnc(-c2ccc3occ(-c4cc(F)ccc4F)c3c2)o1 (stereo not drawn) [Example 392, 2-[3-(2,5-difluorophenyl)-1-benzofuran-5-yl]-5-(methylsulfinyl)-1,3,4-oxadiazole] | ≤ 100 |
| CS(=O)(=O)c1ccc(-c2coc3ccc(-c4nnc(O)o4)cc23)cc1 [Example 398, 5-[3-[4-(methylsulfonyl)phenyl]-1-benzofuran-5-yl]-1,3,4-oxadiazol-2-ol] | ≤ 100 |
| OCc1nnc(-c2ccc3occ(-c4cccc(OC(F)(F)F)c4)c3c2)o1 [Example 401, [5-[3-[3-(trifluoromethoxy)phenyl]-1-benzofuran-5-yl]-1,3,4-oxadiazol-2-yl]methanol] | ≤ 100 |
| CC(O)c1nnc(-c2ccc3occ(-c4cccc(OC(F)(F)F)c4)c3c2)o1 (stereo not drawn) [Example 403, 1-[5-[3-[3-(trifluoromethoxy)phenyl]-1-benzofuran-5-yl]-1,3,4-oxadiazol-2-yl]ethanol] | ≤ 100 |
